# Source: PubChem BioAssay AID1671190 (National Center for Advancing Translational Sciences (NCATS), 2021)
# Chains of the proteins cited; added tags and fusions are not shown. Lines headed by an entry give the natural chain unless they say otherwise; changes in a name come on top.
# UniProt P18054: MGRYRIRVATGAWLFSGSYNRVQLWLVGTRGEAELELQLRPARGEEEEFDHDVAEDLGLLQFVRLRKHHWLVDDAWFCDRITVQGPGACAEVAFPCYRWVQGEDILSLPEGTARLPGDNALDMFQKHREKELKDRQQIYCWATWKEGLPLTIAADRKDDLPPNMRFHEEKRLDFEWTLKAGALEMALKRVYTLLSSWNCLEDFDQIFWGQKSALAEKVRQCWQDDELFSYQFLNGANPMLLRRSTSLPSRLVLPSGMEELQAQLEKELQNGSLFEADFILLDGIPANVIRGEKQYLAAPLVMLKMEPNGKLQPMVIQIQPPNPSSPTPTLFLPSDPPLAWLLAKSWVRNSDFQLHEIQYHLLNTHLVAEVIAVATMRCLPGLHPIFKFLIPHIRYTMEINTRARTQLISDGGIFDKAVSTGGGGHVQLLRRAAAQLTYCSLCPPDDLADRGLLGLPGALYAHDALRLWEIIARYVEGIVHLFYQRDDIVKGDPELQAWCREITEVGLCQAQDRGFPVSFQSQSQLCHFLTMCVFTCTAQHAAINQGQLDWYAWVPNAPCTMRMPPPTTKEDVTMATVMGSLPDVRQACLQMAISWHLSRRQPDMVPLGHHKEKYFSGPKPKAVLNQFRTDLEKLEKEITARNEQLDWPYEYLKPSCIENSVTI
# Values joined by “and” are separate entries in the source; they are usually repeats but may differ in a detail not shown here. Identical values can stand only once. The campaign covered roughly 580,000 compounds. About 6,100 (1.1%) were called active. Inconclusive results, whose numbers are uncertain, are shown with a selection of clear calls. Calls follow the shape of the dose curve; as a rule, active = well fitted inhibition curve with a large enough effect; inconclusive = small, poorly fitted or top-dose-only effect, or another doubt; inactive = no such curve, though single readings can be large or run the other way. A potency beside an inconclusive call is a rough fit, not a confirmed value.
# Target: Polyunsaturated fatty acid lipoxygenase ALOX12 (Homo sapiens) (UniProt P18054)
# Test: Primary qHTS assay for inhibitors of human arachidonate 12S-lipoxygenase (ALOX12): Round 2
# Details: purified 12hLO, xylenol orange hydroperoxide absorbance; activity change, negative = inhibition: at 108 µM (top of the series) unless noted
# Method in brief: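 Purified human 12hLO (150 nM final) in 25 mM Hepes, 0.01% Triton X-100, pH 7.0 was preincubated 15 min at room temperature with compound. Then 40 uM arachidonic acid was added, 30 min. Hydroperoxide was read by Fe-XO absorbance ratio 573/405 nm.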
# % is scaled to controls: 0 for no effect and ±100 for the full control effect; potency is read from the fitted curve at half-maximal effect.
SMILES,Potency,"activity change, negative = inhibition"
C=C1c2cc(CC)ccc2NC(=O)N1c1ccc(C)cc1,"inconclusive: 56.2 µM [inhibitor, partial curve, poor fit]",–
O=C1CCCC2=C1C(c1ccccc1F)Nc1nonc1N2 (stereo not drawn),"inconclusive: 112 µM [inhibitor, partial curve, poor fit]",–
O=C(CC1CC2CCC1C2)NCc1cccc(Cl)c1 (stereo not drawn),"inconclusive: 8.91 µM [inhibitor, full curve]",–
CSc1nc(C(C)C)ccc1CNC(=O)CC(C)c1ccccc1 (stereo not drawn),"inconclusive: 100 µM [inhibitor, partial curve, poor fit]",–
CCOC(=O)CC(=O)c1[nH]c(C)c(C(=O)OCC)c1C,–,inactive: -4.65%
O=C(N/N=C/C=C/c1ccccc1)C1CC1c1ccccc1 (stereo not drawn),–,inactive: 4.23%
CC(C)CCNC(=S)Nc1ccccc1,"inconclusive: 3.16 µM [inhibitor, full curve, poor fit]",–
N#Cc1ccccc1CNc1ccccc1I,"inconclusive: 50.1 µM [inhibitor, partial curve, poor fit]",–
CCOC(=O)c1cc(-c2ccccc2)n(CC(=O)Nc2cc(Cl)c(OC)cc2OC)c1C,"inconclusive: 126 µM [inhibitor, partial curve, poor fit]",–
CC(C)N(C(=O)CSc1nn2c(=O)c(C(C)(C)C)nnc2s1)c1ccccc1,"inconclusive: 112 µM [inhibitor, single point]",–
O=C(C1=C(O)/C(=C/c2ccc(O)cc2)CCC1)C(F)(F)F,"inconclusive: 44.7 µM [inhibitor, partial curve, poor fit]",–
COc1ccc(N2CCN(CCCNC(=O)C3CCC(CNc4nc(=S)[nH]c5ccccc45)CC3)CC2)cc1 (stereo not drawn),–,inactive: -15.1%
CCCNc1c(NC(=O)c2ccc(OC)c(OC)c2)c(=O)oc2ccccc12,–,inactive: -4.13%
Cc1cc(C)c(NC(=O)Nc2sc3nc4n(c(=O)c3c2C)CCC(C)CC4)c(C)c1 (stereo not drawn),–,inconclusive: -46.6% [inhibitor]
COc1ccccc1C(=O)Nc1sc2c(c1C(=O)NCc1ccco1)CCCC2,"inconclusive: 56.2 µM [inhibitor, partial curve, poor fit]",–
O=C(CCSc1ccc(Cl)cc1)Nc1ccc(CSc2ccccc2)cc1,"inconclusive: 31.6 µM [inhibitor, partial curve, poor fit]",–
COc1ccc(-n2sc3c(c2=S)-c2cc(OC)ccc2NC3(C)C)cc1,–,inactive: 0%
O=C(O)C1=C[C@H](c2csc3ccccc23)C[C@H](OCCCCO)O1,"inconclusive: 100 µM [inhibitor, single point]",–
Cc1ccc(Nc2c(-c3ccc(N4CCOCC4)cc3)nc3ncccn23)c(C)c1,"inconclusive: 44.7 µM [inhibitor, partial curve, poor fit]",–
CN(C)c1ccc(C(=O)Nc2ccc(O)c3c(=O)cc(-c4ccccc4Cl)oc23)cc1,"inconclusive: 1.41 µM [inhibitor, full curve, poor fit]",–
Cc1ccc(CNc2ccccc2C(=O)O)s1,"inconclusive: 10 µM [inhibitor, full curve]",–
Cc1nn(C(C)C(=O)Nc2cccc(F)c2)c(=O)c2c1sc1ccccc12 (stereo not drawn),–,inactive: -20%

SMILES,Potency,"activity change, negative = inhibition"
COC(=O)[C@@]12C[C@@H](CC(=O)NCCCCc3ccccc3)C(=O)N(Cc3ccco3)C1=CCC(C)(C)C2,–,inactive: -24.8%
COc1ccc(N=CC=C2OC(C)(C)C(C)(C)O2)cc1OC,"inconclusive: 50.1 µM [inhibitor, partial curve, poor fit]",–
Cc1ccc2c(c1)Oc1cc(Cl)c(S(=O)(=O)N(C)C)cc1C(=O)N2,"inconclusive: 141 µM [inhibitor, single point]",–
CCn1cc(CNC(=O)c2ccc(OC3CCN(Cc4ccccn4)CC3)cc2)cn1,–,inactive: 0%
COC(=O)c1cccc(C(=O)NCC2CCC2)c1,–,inactive: 22.9%
CCn1c(SCC(=O)Nc2nccs2)nnc1-c1ccccn1,"inconclusive: 44.7 µM [inhibitor, partial curve, poor fit]",–
COc1cc(NC(=O)CSc2nnc(Cn3nnc4ccccc43)n2C)cc(OC)c1,–,inactive: 0%
CCCOc1ccc(C(=O)Nc2ccc3oc(-c4cccnc4)nc3c2)cc1,–,inactive: 34.1%
Nc1c(C(=O)O)sc2nc(-c3ccccc3)c3c(c12)CCCC3,"inconclusive: 44.7 µM [inhibitor, partial curve, poor fit]",–
CCOC(=O)C1CCCc2c1[nH]c1c(C(N)=O)cccc21 (stereo not drawn),"inconclusive: 20 µM [inhibitor, full curve, poor fit]",–
N#Cc1ccc(NC(=S)N2CCC3CC2c2cc(-c4ccc5c(c4)OCO5)ccc23)cc1 (stereo not drawn),"inconclusive: 112 µM [inhibitor, partial curve, poor fit]",–
COc1ccccc1/C=C/C=C(/C#N)C(=O)Nc1cc(C(F)(F)F)ccc1Cl,–,inactive: -26.7%
O=C(NNc1c2ccccc2nc2ccccc12)c1ccc(Cl)cc1,–,inactive: -2.77%
Cc1ccc(NC(=O)CCCc2ccccc2)nc1,–,inactive: -21.1%
CCN1c2cc(C(=O)NCc3ccc(F)c(Cl)c3)ccc2C(=O)N2CCCCCC21 (stereo not drawn),"inconclusive: 28.2 µM [inhibitor, partial curve, poor fit]",–
Cc1ccccc1-c1noc(CSc2nc(-c3ccc(F)cc3)cc(=O)[nH]2)n1,"inconclusive: 112 µM [inhibitor, partial curve, poor fit]",–
COC(=O)/C=C1/SC(=NC(=O)c2ccc(Cl)cc2)NC1=O,"inconclusive: 126 µM [inhibitor, partial curve, poor fit]",–
CCc1ccccc1NS(=O)(=O)c1ccc2[nH]cc(C(=O)NC3CCCC3)c(=O)c2c1,"inconclusive: 44.7 µM [inhibitor, partial curve, poor fit] and inconclusive: 56.2 µM [inhibitor, partial curve, poor fit]",–
CC(C)CNc1nc(C(=O)Nc2ccccc2O)cs1,–,inactive: -24.3%
Cc1cccc(N/N=C/c2ccc(F)c(F)c2)c1,active: 5.62 µM,–
CC(C)Sc1nnc(-c2nn(Cc3ccccc3)c(=O)c3ccccc23)o1,"inconclusive: 3.98 µM [inhibitor, full curve, poor fit]",–
